For the data set, the target named is HNF1A Q141Hfs*47 (c.422_423InsT) (UniProt P20823). The experiment in a line: EMSA. Conditions: two barely visible complexes, diminished by 300x unlabeled probe; 12 mM Hepes pH 7.9, 60 mM KCl, 10% glycerol, 1 mM EDTA, 1 mM MgCl2, 1 mM DTT plus DNA mix (1 mM spermidine, 1 mM MgCl2), 1 ug poly(dG/dC)·poly(dG-dC), 4 C; protein translated in vitro; residues 1-140; label: 32P 5' end (T4 PNK), unlabeled as competitor. For orientation: A gel shift assay detects complexes by their altered migration in electrophoresis.

Amino acid sequences for entries named in this document (tags omitted). A change or cut given only in a name is not applied to a line headed by its entry.
UniProt P20823: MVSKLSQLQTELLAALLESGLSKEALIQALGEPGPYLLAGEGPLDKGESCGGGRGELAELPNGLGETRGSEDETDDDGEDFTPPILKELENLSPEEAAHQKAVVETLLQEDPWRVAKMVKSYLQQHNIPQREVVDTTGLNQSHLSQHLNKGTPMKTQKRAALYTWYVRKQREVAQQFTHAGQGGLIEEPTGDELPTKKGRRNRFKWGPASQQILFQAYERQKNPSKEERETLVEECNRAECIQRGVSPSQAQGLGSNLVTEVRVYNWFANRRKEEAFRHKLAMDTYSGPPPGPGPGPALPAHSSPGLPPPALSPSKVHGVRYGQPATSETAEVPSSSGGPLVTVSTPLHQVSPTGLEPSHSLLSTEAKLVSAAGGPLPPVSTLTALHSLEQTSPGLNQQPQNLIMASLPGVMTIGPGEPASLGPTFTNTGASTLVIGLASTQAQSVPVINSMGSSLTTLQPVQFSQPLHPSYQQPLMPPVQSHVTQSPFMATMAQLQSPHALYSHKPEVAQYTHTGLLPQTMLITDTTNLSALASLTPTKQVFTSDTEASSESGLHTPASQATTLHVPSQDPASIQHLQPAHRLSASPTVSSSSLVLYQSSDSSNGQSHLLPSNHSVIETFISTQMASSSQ

The exact form of at least one protein or probe is not confirmed. Weaker means in comparison with the reference protein, sequence or condition of that experiment.

Data on 1 sequence can be found in publication PMC5241209, “Identification and functional analysis of c.422_423InsT, a novel mutation of the HNF1A gene in a patient with diabetes”.

Turning to “CTCAGTAAAGATTAACCAT (double strand) [GLUT2 promoter HNF1A site]”, the binding result is given as “binds more weakly”.
